Tests used:
Format in all cases: cell-based
[1] = test system: SKBR-3 (human breast adenocarcinoma); experiment: MTT cytotoxicity assay, SKBR-3; conditions: IC50 for normal cell line (HDF)/IC50 for SKBR-3
Method: (§1) This activity was evaluated in vitro using the standard MTT method (enzymatic reduction of 3-[4,5-dimethylthiazole-2-yl]-2,5-diphenyltetrazolium bromide, MTT, to MTT-formazan) based on a viability assay.
(§2) Cytotoxic activity: Human cancer cells SKBR-3 (human breast cancer cell line) and SKOV-3 (ovarian cancer cell line) were cultured in McCoy’s Modified Medium. Human cancer cells PC-3 (human prostate cancer cell line) were cultured in an F-12K medium. The Human Dermal Fibroblast (HDF) cell line was cultured in Fibroblast Basal Medium. The U-87 cell line was cultured in EMEM medium. Each medium was supplemented with 10% foetal bovine serum, 1% L- glutamine, and 1% penicillin/streptomycin solution. The cell lines were kept in an incubator at 37 °C. All the cell lines and mediums were obtained from the American Type Culture Collection (ATCC) supplied by LGC-Standards (Lomianki, Poland).
(§3) The MTT assay was conducted as described earlier.

[2] = test system: SKOV-3 (human ovarian cystadenocarcinoma); experiment: MTT cytotoxicity assay, SKOV-3; conditions: IC50 for normal cell line (HDF)/IC50 for SKOV-3
Method: as §1, §2, §3

[3] = test system: PC-3 (human prostate carcinoma); experiment: MTT cytotoxicity assay, PC-3; conditions: IC50 for normal cell line (HDF)/IC50 for PC-3
Method: as §1, §2, §3

[4] = test system: U-87 (human glioblastoma); experiment: MTT cytotoxicity assay, U-87; conditions: IC50 for normal cell line (HDF)/IC50 for U-87
Method: as §1, §2, §3

| SMILES | SI, SKBR-3 [1] | SI, SKOV-3 [2] | SI, PC-3 [3] | SI, U-87 [4] |
| --- | --- | --- | --- | --- |
| CC1(C)CC[C@]2(C(=O)OCCCOC(=O)[C@]34CCC(C)(C)CC3C3=CCC5[C@@]6(C)CC[C@H](O)C(C)(C)C6CC[C@@]5(C)[C@]3(C)CC4)CC[C@]3(C)C(=CCC4[C@@]5(C)CC[C@H](O)C(C)(C)C5CC[C@]43C)C2C1 (some centres unmarked) [Compound 2c] | 2.48 | 2.30 | 2.56 | 2.54 |
| CC1(C)CC[C@]2(C(=O)OCCCCCCCCCCCCOC(=O)[C@]34CCC(C)(C)CC3C3=CCC5[C@@]6(C)CC[C@H](O)C(C)(C)C6CC[C@@]5(C)[C@]3(C)CC4)CC[C@]3(C)C(=CCC4[C@@]5(C)CC[C@H](O)C(C)(C)C5CC[C@]43C)C2C1 (some centres unmarked) [Compound 2n] | 1.07 | 0.98 | 1.05 | 1.12 |
| CC1(C)CC[C@]2(C(=O)OCOC(=O)[C@]34CCC(C)(C)CC3C3=CCC5[C@@]6(C)CC[C@H](O)C(C)(C)C6CC[C@@]5(C)[C@]3(C)CC4)CC[C@]3(C)C(=CCC4[C@@]5(C)CC[C@H](O)C(C)(C)C5CC[C@]43C)C2C1 (some centres unmarked) [Compound 2a] | 1.66 | 1.69 | 1.94 | 1.97 |
| CC1(C)CC[C@]2(C(=O)OCCCCCCCCCCCOC(=O)[C@]34CCC(C)(C)CC3C3=CCC5[C@@]6(C)CC[C@H](O)C(C)(C)C6CC[C@@]5(C)[C@]3(C)CC4)CC[C@]3(C)C(=CCC4[C@@]5(C)CC[C@H](O)C(C)(C)C5CC[C@]43C)C2C1 (some centres unmarked) [Compound 2m] | 1.89 | 1.62 | 1.90 | 1.75 |
| CC1(C)CC[C@]2(C(=O)OCCCCOC(=O)[C@]34CCC(C)(C)CC3C3=CCC5[C@@]6(C)CC[C@H](O)C(C)(C)C6CC[C@@]5(C)[C@]3(C)CC4)CC[C@]3(C)C(=CCC4[C@@]5(C)CC[C@H](O)C(C)(C)C5CC[C@]43C)C2C1 (some centres unmarked) [Compound 2d] | 2.63 | 1.89 | 1.80 | 2.46 |
| CC1(C)CC[C@]2(C(=O)OCCCCCCOC(=O)[C@]34CCC(C)(C)CC3C3=CCC5[C@@]6(C)CC[C@H](O)C(C)(C)C6CC[C@@]5(C)[C@]3(C)CC4)CC[C@]3(C)C(=CCC4[C@@]5(C)CC[C@H](O)C(C)(C)C5CC[C@]43C)C2C1 (some centres unmarked) [Compound 2h] | 2.87 | 3.21 | 3.24 | 2.95 |
| CC1(C)CC[C@]2(C(=O)OCCCCCCCCCOC(=O)[C@]34CCC(C)(C)CC3C3=CCC5[C@@]6(C)CC[C@H](O)C(C)(C)C6CC[C@@]5(C)[C@]3(C)CC4)CC[C@]3(C)C(=CCC4[C@@]5(C)CC[C@H](O)C(C)(C)C5CC[C@]43C)C2C1 (some centres unmarked) [Compound 2k] | 2.43 | 2.44 | 2.43 | 2.29 |
| CC1(C)CC[C@]2(C(=O)OCCOC(=O)[C@]34CCC(C)(C)CC3C3=CCC5[C@@]6(C)CC[C@H](O)C(C)(C)C6CC[C@@]5(C)[C@]3(C)CC4)CC[C@]3(C)C(=CCC4[C@@]5(C)CC[C@H](O)C(C)(C)C5CC[C@]43C)C2C1 (some centres unmarked) [Compound 2b] | 1.68 | 1.72 | 1.74 | 1.70 |
| CC1(C)CC[C@]2(C(=O)OCCCCCCCOC(=O)[C@]34CCC(C)(C)CC3C3=CCC5[C@@]6(C)CC[C@H](O)C(C)(C)C6CC[C@@]5(C)[C@]3(C)CC4)CC[C@]3(C)C(=CCC4[C@@]5(C)CC[C@H](O)C(C)(C)C5CC[C@]43C)C2C1 (some centres unmarked) [Compound 2i] | 1.57 | 1.46 | 1.70 | 1.76 |
| CC1(C)CC[C@]2(C(=O)OCCCCCOC(=O)[C@]34CCC(C)(C)CC3C3=CCC5[C@@]6(C)CC[C@H](O)C(C)(C)C6CC[C@@]5(C)[C@]3(C)CC4)CC[C@]3(C)C(=CCC4[C@@]5(C)CC[C@H](O)C(C)(C)C5CC[C@]43C)C2C1 (some centres unmarked) [Compound 2g] | 0.65 | 0.65 | 0.58 | 0.63 |
| CC1(C)CC[C@]2(C(=O)OCCCCCCCCOC(=O)[C@]34CCC(C)(C)CC3C3=CCC5[C@@]6(C)CC[C@H](O)C(C)(C)C6CC[C@@]5(C)[C@]3(C)CC4)CC[C@]3(C)C(=CCC4[C@@]5(C)CC[C@H](O)C(C)(C)C5CC[C@]43C)C2C1 (some centres unmarked) [Compound 2j] | 1.60 | 1.55 | 1.63 | 1.49 |
| CC1(C)CC[C@]2(C(=O)OC/C=C\COC(=O)[C@]34CCC(C)(C)CC3C3=CCC5[C@@]6(C)CC[C@H](O)C(C)(C)C6CC[C@@]5(C)[C@]3(C)CC4)CC[C@]3(C)C(=CCC4[C@@]5(C)CC[C@H](O)C(C)(C)C5CC[C@]43C)C2C1 (some centres unmarked) [Compound 2e] | 1.03 | 1.28 | 1.18 | 0.98 |
| CC1(C)CC[C@]2(C(=O)OCCCCCCCCCCOC(=O)[C@]34CCC(C)(C)CC3C3=CCC5[C@@]6(C)CC[C@H](O)C(C)(C)C6CC[C@@]5(C)[C@]3(C)CC4)CC[C@]3(C)C(=CCC4[C@@]5(C)CC[C@H](O)C(C)(C)C5CC[C@]43C)C2C1 (some centres unmarked) [Compound 2l] | 1.94 | 1.97 | 1.97 | 1.94 |
| CC1(C)CC[C@]2(C(=O)OC/C=C/COC(=O)[C@]34CCC(C)(C)CC3C3=CCC5[C@@]6(C)CC[C@H](O)C(C)(C)C6CC[C@@]5(C)[C@]3(C)CC4)CC[C@]3(C)C(=CCC4[C@@]5(C)CC[C@H](O)C(C)(C)C5CC[C@]43C)C2C1 (some centres unmarked) [Compound 2f] | 0.54 | 0.58 | 0.54 | 0.57 |

Reference: PMC11241395 (International Journal of Molecular Sciences, 2024)
